Measurements published in the supplement of paper PMC8728848.
The other results are listed elsewhere or left out.

How the values were obtained:
Assay in all cases: glycan array binding signal (z-score within array); higher = stronger binding
Conditions in all cases: glycan notation: IUPAC condensed, linker removed
[1] = biological target: Gal(b1-3)GalNAc(b1-3)Gal(a1-4)Gal(b1-4)Glc
Method in brief: (§1)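 The binding signal is a Z-score computed within each array and averaged over linkers. Arrays of the same protein sequence at different concentrations or buffers were also averaged together. Data originate from 3228 arrays in the Consortium for Functional Glycomics database, kept only where the protein sequence was available.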

[2] = biological target: Gal(b1-3)GalNAc(b1-4)Gal(b1-4)Glc
Method in brief: as §1

[3] = biological target: Gal(b1-3)GalNAc(b1-4)[Neu5Ac(a2-3)]Gal(b1-4)Glc
Method in brief: as §1

Gal(b1-3)GlcNAc = biological target: Gal(b1-3)GlcNAc
Method in brief: as §1

[4] = biological target: Gal(b1-3)GlcNAc(a1-3)Gal(b1-4)GlcNAc
Method in brief: as §1

[5] = biological target: Gal(b1-3)GlcNAc(a1-6)Gal(b1-4)GlcNAc
Method in brief: as §1

Gal(b1-3)GlcNAc(b1-2)Man = biological target: Gal(b1-3)GlcNAc(b1-2)Man
Method in brief: as §1

[6] = biological target: Gal(b1-3)GlcNAc(b1-2)Man(a1-3)[Gal(b1-3)GlcNAc(b1-2)Man(a1-6)]Man(b1-4)GlcNAc(b1-4)GlcNAc
Method in brief: as §1

[7] = biological target: Gal(b1-3)GlcNAc(b1-2)Man(a1-3)[Gal(b1-3)GlcNAc(b1-2)Man(a1-6)]Man(b1-4)GlcNAc(b1-4)[Fuc(a1-6)]GlcNAc
Method in brief: as §1

[8] = biological target: Gal(b1-3)GlcNAc(b1-2)Man(a1-3)[GlcNAc(b1-4)][Gal(b1-3)GlcNAc(b1-2)Man(a1-6)]Man(b1-4)GlcNAc(b1-4)GlcNAc
Method in brief: as §1

[9] = biological target: Gal(b1-3)GlcNAc(b1-2)[Gal(b1-3)GlcNAc(b1-6)]Man(a1-6)[Gal(b1-3)GlcNAc(b1-2)Man(a1-3)]Man(b1-4)GlcNAc(b1-4)GlcNAc
Method in brief: as §1

[10] = biological target: Gal(b1-3)GlcNAc(b1-3)Gal(b1-3)GlcNAc
Method in brief: as §1

[11] = biological target: Gal(b1-3)GlcNAc(b1-3)Gal(b1-4)Glc
Method in brief: as §1

[12] = biological target: Gal(b1-3)GlcNAc(b1-3)Gal(b1-4)GlcNAc
Method in brief: as §1

[13] = biological target: Gal(b1-3)GlcNAc(b1-3)Gal(b1-4)GlcNAc(b1-2)Man(a1-3)[Gal(b1-3)GlcNAc(b1-3)Gal(b1-4)GlcNAc(b1-2)Man(a1-6)]Man(b1-4)GlcNAc(b1-4)GlcNAc
Method in brief: as §1

[14] = biological target: Gal(b1-3)GlcNAc(b1-3)Gal(b1-4)GlcNAc(b1-2)[Gal(b1-3)GlcNAc(b1-3)Gal(b1-4)GlcNAc(b1-6)]Man(a1-6)[Gal(b1-3)GlcNAc(b1-3)Gal(b1-4)GlcNAc(b1-2)Man(a1-3)]Man(b1-4)GlcNAc(b1-4)[Fuc(a1-6)]GlcNAc
Method in brief: as §1

[15] = biological target: Gal(b1-3)GlcNAc(b1-3)Gal(b1-4)GlcNAc(b1-3)Gal(b1-4)GlcNAc(b1-2)[Gal(b1-3)GlcNAc(b1-3)Gal(b1-4)GlcNAc(b1-3)Gal(b1-4)GlcNAc(b1-6)]Man(a1-6)[Gal(b1-3)GlcNAc(b1-3)Gal(b1-4)GlcNAc(b1-3)Gal(b1-4)GlcNAc(b1-2)Man(a1-3)]Man(b1-4)GlcNAc(b1-4)[Fuc(a1-6)]GlcNAc
Method in brief: as §1

[16] = biological target: Gal(b1-3)GlcNAc(b1-3)Gal(b1-4)GlcNAc(b1-6)[Gal(b1-3)GlcNAc(b1-3)]Gal(b1-4)Glc
Method in brief: as §1

[17] = biological target: Gal(b1-3)GlcNAc(b1-3)Gal(b1-4)[Fuc(a1-3)]GlcNAc
Method in brief: as §1

[18] = biological target: Gal(b1-3)GlcNAc(b1-3)Gal(b1-4)[Fuc(a1-3)]GlcNAc(b1-6)[Gal(b1-3)GlcNAc(b1-3)]Gal(b1-4)Glc
Method in brief: as §1

[19] = biological target: Gal(b1-3)GlcNAc(b1-3)GalNAc
Method in brief: as §1

[20] = biological target: Gal(b1-3)GlcNAc(b1-6)Gal(b1-4)GlcNAc
Method in brief: as §1

[21] = biological target: Gal(b1-3)GlcNAc(b1-6)GalNAc
Method in brief: as §1

[22] = biological target: Gal(b1-3)GlcNAc(b1-6)[Gal(b1-3)]GalNAc
Method in brief: as §1

Gal(b1-3)GlcNAc6S = biological target: Gal(b1-3)GlcNAc6S
Method in brief: as §1

[23] = biological target: Gal(b1-3)[Fuc(a1-4)]GlcNAc
Method in brief: as §1

[24] = biological target: Gal(b1-3)[Fuc(a1-4)]GlcNAc(b1-2)Man
Method in brief: as §1

[25] = biological target: Gal(b1-3)[Fuc(a1-4)]GlcNAc(b1-2)Man(a1-3)[Gal(b1-3)[Fuc(a1-4)]GlcNAc(b1-2)Man(a1-6)]Man(b1-4)GlcNAc(b1-4)[Fuc(a1-6)]GlcNAc
Method in brief: as §1

[26] = biological target: Gal(b1-3)[Fuc(a1-4)]GlcNAc(b1-3)Gal(b1-3)[Fuc(a1-4)]GlcNAc
Method in brief: as §1

[27] = biological target: Gal(b1-3)[Fuc(a1-4)]GlcNAc(b1-3)Gal(b1-4)[Fuc(a1-3)]GlcNAc
Method in brief: as §1

[28] = biological target: Gal(b1-3)[Fuc(a1-4)]GlcNAc(b1-6)GalNAc
Method in brief: as §1

[29] = biological target: Gal(b1-3)[GlcNAc(b1-6)]GalNAc
Method in brief: as §1

[30] = biological target: Gal(b1-3)[Neu5Ac(a2-6)]GalNAc
Method in brief: as §1

[31] = biological target: Gal(b1-3)[Neu5Ac(a2-6)]GlcNAc(b1-4)Gal(b1-4)Glc
Method in brief: as §1

[32] = biological target: Gal(b1-3)[Neu5Ac(b2-6)]GalNAc
Method in brief: as §1

Gal(b1-4)Gal = biological target: Gal(b1-4)Gal
Method in brief: as §1

[33] = biological target: Gal(b1-4)GalNAc(a1-3)[Fuc(a1-2)]Gal(b1-4)GlcNAc
Method in brief: as §1

[34] = biological target: Gal(b1-4)GalNAc(b1-3)[Fuc(a1-2)]Gal(b1-4)GlcNAc
Method in brief: as §1

B1: TAL6-4LysM (Trichoderma atroviride) (protein)
chain: AADSIPSISPTGIITPTPTQSGMVSNCNKFYDVHSNDGCSAIASSQHVDLSSLYKWNPAIKTDCSGLQASVYVCIGILTTSMSTTSKLPTTTSKPSTTSKPPTGITTPTPTQSGMVKNCNKFYDVHSGDGCSAIASSQKVNLSSFYLWNPAVKTDCSGLQASVFVCIGTLTTSMSTTTSKLPTTTSKPSTTSKPPTGIITPTPTQNGMVKNCNKFYDVHSGDGCSAIASSQKVNLSSFYLWNPAVKTDCSGLQASVFVCVGTATTTTAAGITTPTPTQSGMVSGCNKFYDVHAGDGCSAIASSQKIALSSLYKWNPAVKTDCSGLQASVYICIGVGNAAAARVTGALEQKLISEEDLNSAVDHHHHHH
glycan array binding signal (z-score) [1]: -0.156
glycan array binding signal (z-score) [2]: 0.178
glycan array binding signal (z-score) [3]: 0.291
glycan array binding signal (z-score) (Gal(b1-3)GlcNAc): -0.679
glycan array binding signal (z-score) [4]: -0.81
glycan array binding signal (z-score) [5]: 0.827
glycan array binding signal (z-score) (Gal(b1-3)GlcNAc(b1-2)Man): -0.521
glycan array binding signal (z-score) [6]: -1.12
glycan array binding signal (z-score) [7]: -0.545
glycan array binding signal (z-score) [8]: 1.18
glycan array binding signal (z-score) [9]: 0.474
glycan array binding signal (z-score) [10]: -0.097
glycan array binding signal (z-score) [11]: 1.22
glycan array binding signal (z-score) [12]: -1.02
glycan array binding signal (z-score) [13]: 0.183
glycan array binding signal (z-score) [14]: -0.349
glycan array binding signal (z-score) [15]: 0.206
glycan array binding signal (z-score) [16]: -0.934
glycan array binding signal (z-score) [17]: -0.408
glycan array binding signal (z-score) [18]: -0.225
glycan array binding signal (z-score) [19]: 0.663
glycan array binding signal (z-score) [20]: 0.003
glycan array binding signal (z-score) [21]: -0.263
glycan array binding signal (z-score) [22]: -0.367
glycan array binding signal (z-score) (Gal(b1-3)GlcNAc6S): 3.15
glycan array binding signal (z-score) [23]: -0.074
glycan array binding signal (z-score) [24]: 0.506
glycan array binding signal (z-score) [25]: 1.23
glycan array binding signal (z-score) [26]: -0.763
glycan array binding signal (z-score) [27]: 0.014
glycan array binding signal (z-score) [28]: -0.1
glycan array binding signal (z-score) [29]: 2.39
glycan array binding signal (z-score) [30]: -0.969
glycan array binding signal (z-score) [31]: -0.311
glycan array binding signal (z-score) [32]: -0.444
glycan array binding signal (z-score) (Gal(b1-4)Gal): -1.42
glycan array binding signal (z-score) [33]: -1.42
glycan array binding signal (z-score) [34]: 1.07
